About 210 (0.4%) of roughly 52,000 sequences were called active.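 How the source made its calls: active means gene whose silencing raises cell survival under the drug, median off-target-corrected z-score across its silencing RNAs 2 or more; inactive means the rest.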 The list shows a part of the results.
Test: Resistance to Poly (ADP-Ribose) Polymerase inhibitor: Gene Identification via Genome-wide siRNA Screen
Conditions: mouse BRCA2 R2336H ES cells, olaparib, CellTiter-Glo viability; stronger effect = higher value
Summary of the method: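 Mouse BRCA2 R2336H ES cells were reverse-transfected with siRNA (20 nM final), treated at 48 h with 500 nM olaparib, and read by CellTiter-Glo after 72 h. Scores: MAD-based z per siRNA, median per gene, seed off-target correction.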

Sequence | z-score
GGUUCUUCCCACAGAAGACTT against Pggt1b | inactive: 1.33
GGAUGAGGUGAUUAAAGAATT against Cd9 | inactive: 2.08
GGAUCAAAACUUAAAUGGUTT against Lancl1 | inactive: 1.26
GCUGCUAAAGAGCAUUUUGTT against Fkbp11 | inactive: -0.975
GGUUAAAUAAUCCACAAGCTT against 4930563D23Rik | inactive: 1.59
GGACAUUUCUAUGUCUUUGTT against Cpt2 | inactive: -0.58
CCUAAUUGUCCUUCACAUGTT against Pfkfb2 | inactive: 0.124
GCGAUUUCACACCAUCACATT against Rab10 | inactive: -0.183
GGAAACCAUCGAGCAAGAGTT against 1700129I15Rik | inactive: -1.56
GGAAUCAUUGACGUAAUCATT against Chi3l3 | inactive: 0.209
GGCUGUGGAAGUGCAGAACTT against Dnmt3a | inactive: -0.383
GGCCAAGAGCAACUCACUGTT against BC048671 | inactive: -0.991
GCAUUAUUCUGAGGACACATT against FHOS2 | inactive: 1.26
GGAAGAAGUUGGAGAUGUUTT against Dhrs8 | inactive: -2.07
GGACCAAGCAAGAAGGUGGTT against Tatdn2 | inactive: -1.43
GGAGGAGCUCCUAAAGUGUTT against Bcat1 | inactive: 0.987
GGGUUGUGCCUCACAGAUUTT against Olfr976 | inactive: 0.28
GGACAUCCUCAAGCUUCAUTT against Cib2 | inactive: -0.811
GGAGAAGUCUUCAUUUGAATT against Tubgcp2 | inactive: -1.47
GGCUCAGCAUGUGUCAUACTT against 3010027G13Rik | inactive: -0.23
GCUAAUGCUAGGUGUGAAATT against Caskin2 | inactive: -1.27
GGAAGAAAUUUUUCGUUGATT against Gldc | inactive: -0.0281
GCUAAUAACUGUUCACAUATT against Baiap1 | inactive: 1.11
GGCAGAAUCUAAAGACCAATT against Aldh8a1 | inactive: 0.723
GGCACUCAACACCUGUAUATT against Olfr640 | inactive: -0.209
GGAUGUGGCAUCCUACCACTT against Bfsp2 | inactive: 2.28

Look-ups from the list.
Value of GGAUGUGGCAUCCUACCACTT against Bfsp2 under z-score: inactive: 2.28
Value of GGGUUGUGCCUCACAGAUUTT against Olfr976 under z-score: inactive: 0.28
Value of GGAGGAGCUCCUAAAGUGUTT against Bcat1 under z-score: inactive: 0.987

Continuation:

Sequence | z-score
GGUAAACAUGAUGUCCCUCTT against A630038E17Rik | inactive: -0.0528
GGAACGAGAAUCGGAGAUGTT against Mapk8ip3 | inactive: 0.251
GCUCAUGAUUACUGCCAAUTT against Olfr1305 | inactive: 1.83
GGCUACGCAGCGAAGAAAATT against Rpl32 | inactive: -3.38
GCUUUAUGAGUUCACGGAGTT against Prkab2 | inactive: 0.97
GGUGGGCACUCUGGUUUUUTT against Eif4e | inactive: -2.62
GGGCUGUUUGUAGCAGAUUTT against Olfr1279 | inactive: -2.42
CGAUAAAACAGAACAUAGUTT against Stxbp4 | inactive: 1.79
GGCUCUUUUGAUCACCAAUTT against Abcc1 | inactive: -0.125
CCUAGGAAUCCUUGAUGAUTT against Bmp8b | inactive: -0.925
GGUCUAUGCGAUGCUAUACTT against A830091I15Rik | inactive: -1.05
GGGAGUUCUCUAAAUGCUUTT against Olfr482 | inactive: -0.421
CCGGGUCCGAGUAGAUUUUTT against 2610014H22Rik | inactive: 0.103
GCCACUCAUAUUGAUCCAUTT against Prss34 | inactive: 0.104
GGCUGUGAAUGGAUGGAGGTT against Carkl | inactive: -1.05
CCAAAAUCAUAGAUGGAGUTT against Postn | inactive: -0.00793
GGUCAUUGCCACACAGAUCTT against 1810008K03Rik | inactive: 1.57
CGACAAGGUAUGGAAAGCUTT against MGI:2153084 | inactive: -1.96
GCGGGAGAGCUAUGAAACATT against Mrps21 | inactive: -1.56
GCAGUCGAAGCACUAAAAATT against 1110034A24Rik | inactive: 3.14
CCUGCAAGACAUUUCUCAGTT against Gm1968 | inactive: 1.62
GGCUUUCAGUUAUUUGACATT against BC021921 | inactive: -0.0774
GCAAAACUGGCUGUCAGUATT against Rnf24 | inactive: 0.036
GCGGCUAUGUUACAGGAGCTT against Skb1 | inactive: 1.84
GCGCAAAUACAUUGAGGAUTT against Slc17a7 | inactive: -0.487
CGUGGACUAAAAGUUUUCATT against Mmp12 | inactive: 1.76

Sequence | z-score
GGUACAUUUUAUACUGGAGTT against Zfp277 | inactive: 0.624
GGGACACGAACUCUCCAAUTT against Ywhab | inactive: 0.0859
CCUGAUACCCAAAGACUCATT against Dnaic1 | inactive: -0.0677
CGAGAGUUCUGUGACCAUGTT against Olfr1165 | inactive: 1.67
GGCAAACGAUAAAGAAAUCTT against Ptp4a2 | inactive: 0.55
GCCCUUUUCAGGGAAAACUTT against Myh8 | inactive: -0.561
GGGUUUGUCAUCACUGUCUTT against Bdkrb1 | inactive: -0.695
GCCCAUUCAAACUAUCUAUTT against Ttk | inactive: -0.25
GCUUUUAGGCCAUUAUCAGTT against Ddx46 | inactive: -0.823
GGACACUGGGCGAAUAGUGTT against Cdkl3 | inactive: -0.898
GCGUACGUGGACUUAACUCTT against Gtf2a2 | inactive: 0.637
GGACAGAUGAACUUCAAUGTT against C1galt1 | inactive: -0.811
GGAUGAUGAAAUUGGAGAUTT against Cct5 | inactive: -2.51
GGUCUCAAAGAAGAGGAGUTT against BC022645 | inactive: -0.774
GCAAAUGCGACUUUACACATT against Top1 | inactive: 1.02
CACCCUUCUCUGAUUGUCUTT against 2310007F04Rik | inactive: 0.111
GGACGUGGAAAACCACAGUTT against Nphp4 | inactive: 0.436
GGCACUUCAGAGCAAAUUGTT against Slc16a4 | inactive: -0.257
CCACCUACGUCAACACUAATT against Kcnh6 | inactive: 2.22
GCCGGUGGAAUAUGCUCCATT against AI649392 | inactive: -2.71
GGACCUGUGUGUUCUUUGATT against Amhr2 | inactive: 0.723
GGAGCUUGUUCGAGAUCCATT against Insl5 | inactive: -0.654
GGAGAAAGUCCUUUUUGUUTT against Sh3gl2 | inactive: 1.2
GGGCAUUUACGUCACACGATT against Tax1bp3 | inactive: 1.04
UCCAAGCUGUUGUUUAUACTT against Acsl1 | inactive: -0.237
GGAUGAGUACACUGAAAGCTT against Nvl | inactive: -0.000258

Shown as comma-separated lines: part of the list above
Sequence,z-score
GCAGUCGAAGCACUAAAAATT against 1110034A24Rik,inactive: 3.14
CCUGCAAGACAUUUCUCAGTT against Gm1968,inactive: 1.62

Later entries:

Sequence | z-score
CCCAAUAAAGCUUGUGUAATT against Nudt14 | inactive: -0.606
GGAUCAACUGGUGACACAGTT against Preb | inactive: -0.0488
CCUCCUGUUAAUCAAACUGTT against 1700020H15 | inactive: 0.627
GGAACCACAUUAUGGAUCUTT against Rbx1 | inactive: -1.04
GGCAGUGUUUUUAUUUGAUTT against Pold3 | inactive: -0.316
GCAAAGCCUUACCAUGUAATT against AU044919 | inactive: -1.93
CCACCAGGGAUCGUUAUAATT against Phyh | inactive: -0.753
CGAAACUGACCUCUACACUTT against Cnnm1 | inactive: -1.3
GCAUUGGACUCAUAAUUUUTT against Aadat | inactive: -0.161
CCCAAUCACUUAUUGAAACTT against Cspg2 | inactive: 0.922
GGGUUUUGAAAGAGGAAAATT against Osbpl8 | inactive: 0.567
CCGUGGAGACAGAUCUAGATT against Hif3a | inactive: 0.149
GGACGAGAAUCAAGAGCAGTT against Cdkn1c | inactive: 2.16
UCCAUCGACUGGGACUCUCTT against LOC381680 | inactive: -0.216
CCAGAUCUACGAAAGUUUATT against Snx19 | inactive: -0.0525
CGGAAAAUUUGUUCCUGACTT against C430048L16Rik | inactive: 0.488
GCCUGAUUGUGACGUGGUUTT against Slc19a2 | inactive: -1.13
GGUUAGUCUGACCUGCCUGTT against AI324046 | inactive: -1.42
GGUGCGCUGUGUUGUUCAUTT against Bmper | inactive: -1.59
GCUACUCCAAUAAACGACATT against 2010001H14Rik | inactive: 0.172
GGCAUCCAUAAAGAACAGATT against 4432417N03Rik | inactive: 1.42
GUAUGAUGCACUCCAGUUGTT against Hdac8 | inactive: -1.38
UUUCCGUUUUAGGAUGUGATT against Olfr319 | inactive: 0.502
GGAACAUCACCCUUGCCAATT against 4933425F03Rik | inactive: -0.186
CGGACUGGACAUUGAUGAATT against Slc13a1 | inactive: -0.188
GGUUUUAUAUUGCUUCUCCTT against 9230109A22Rik | inactive: 0.782

2 records picked at random from those above:
Sequence | z-score
GGCAUCCAUAAAGAACAGATT against 4432417N03Rik | inactive: 1.42
CCGUGGAGACAGAUCUAGATT against Hif3a | inactive: 0.149

From PubChem BioAssay AID1347423 (Functional Genomics Laboratory (NCATS/FGL), 2020)
